The test has as its system HEK293A TEAD-LUC reporter. Kind of test: TEAD-luciferase reporter activity (YAP activation), robust Z score vs plate; higher = stronger YAP/TEAD activation. The following applies: 24 h. On the technique in general: A reporter such as luciferase makes a cellular process visible.

SMILES strings stand for the structures. Counter-ions that a name gives are not always drawn. The list shows a part of the results. Repeats in this data set agree poorly, so a single value says little.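 The human kidney-derived cells carry a stably integrated construct of eight TEAD-binding elements driving luciferase, read by luminescence in a drug-repurposing library screen. A compound counts as a hit when its signal is more than five robust Z scores above the plate mean.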

As to `CCn1nc(C(=O)O)c(=O)c2cc3c(cc21)OCO3` [cinoxacin], the TEAD-luciferase reporter activity reads like this: (compound concentration: 200 nM) inactive: -0.465; (compound concentration: 2 uM) inactive: -1.55; (compound concentration: 10 uM) inactive: 0.119.
For `CC(CN(C)C)CN1c2ccccc2CCc2ccccc21` (centres undefined) [Trimipramine maleate], the TEAD-luciferase reporter activity is inactive: 0.387 (compound concentration: 200 nM), inactive: 1.92 (compound concentration: 2 uM) and inactive: 1.48 (compound concentration: 10 uM).
The corresponding values for `Cn1nnnc1C(/C=C/[C@@H]1C[C@@H](O)CC(=O)O1)=C(c1ccc(F)cc1)c1ccc(F)cc1` are inactive: 2.33, inactive: -0.663 and inactive: 4.52.
The corresponding values for `O=C(O)Cn1nnc(-c2cc(N3CCC(Oc4cc(F)ccc4Br)CC3)no2)n1` are inactive: -1.17, inactive: -0.743 and inactive: -1.68.
Consider `Oc1ccc(Cc2nccc3cc(O)c(O)cc23)cc1O` [Papaveroline], for which the TEAD-luciferase reporter activity (compound concentration: 200 nM) is inactive: -1.43, the TEAD-luciferase reporter activity (compound concentration: 2 uM) was inactive: -1.48 and the TEAD-luciferase reporter activity (compound concentration: 10 uM) was inactive: -1.27.
The corresponding values for `Cc1ncoc1-c1nnc(SCCCN2CC3CC3(c3ccc(C(F)(F)F)cc3F)C2)n1C` (centres undefined) are inactive: -0.45, inactive: -1.04 and inactive: -0.822.
For the compound `CC(CCc1ccccc1)NCC(O)c1ccc(O)c(C(N)=O)c1` (centres undefined) [labetalol], the TEAD-luciferase reporter activity (compound concentration: 2 uM) is inactive: 1.58.
As to `CC(CCc1ccccc1)NCC(O)c1ccc(O)c(C(N)=O)c1` (centres undefined) [Labetalol], the TEAD-luciferase reporter activity is inactive: 0.879 (compound concentration: 200 nM) and inactive: -1.92 (compound concentration: 10 uM).
The corresponding values for `Cc1ccsc1/C=C/C1=NCCCN1C` are inactive: -0.625 and inactive: 1.55.
`Cc1ccsc1/C=C/C1=NCCCN1C` [Morantel Citrate]: for the setting “compound concentration: 2 uM”, the TEAD-luciferase reporter activity was inactive: -1.26.
As to `CC(C(O)c1ccccc1)N(C)CC=C1c2ccccc2CCc2ccccc21` (centres undefined), the TEAD-luciferase reporter activity is inactive: 1.08 (compound concentration: 200 nM), inactive: -0.794 (compound concentration: 2 uM) and inactive: 0.0469 (compound concentration: 10 uM).
Take `Cc1ccc(Cn2nc(CCCc3ccc(OC(C)(C)C(=O)O)cc3)[nH]c2=O)cc1`: the TEAD-luciferase reporter activity runs as follows: (compound concentration: 200 nM) inactive: -0.64; (compound concentration: 2 uM) inactive: -0.294; (compound concentration: 10 uM) inactive: -0.265.
For `COc1cc(NS(C)(=O)=O)ccc1Nc1c2ccccc2nc2ccccc12` [amsacrine, Bristol-Myers], in that order: inactive: -1.53, inactive: 2.94 and inactive: -0.51.
For `CCCCCCCCCCCCCCOC(=O)c1cccnc1` [Myristyl nicotinate], in that order: inactive: -0.825, inactive: -2.13 and inactive: 2.2.
The corresponding values for `C#CCOc1ccc(Nc2nc(Nc3ccc(C)c(S(=O)(=O)NC(=O)CC)c3)ncc2F)cc1` are inactive: 2.57, inactive: -0.529 and inactive: 0.964.
With `CC(CCc1ccccc1)NCC#N` (centres undefined), the TEAD-luciferase reporter activity was inactive: -1.21 (compound concentration: 200 nM), inactive: 2.31 (compound concentration: 2 uM) and inactive: -1.5 (compound concentration: 10 uM).
On to `COc1nc(N)c2ncn(C3CCCCC3)c2n1`, for which the TEAD-luciferase reporter activity is inactive: 4.04 (compound concentration: 200 nM), inactive: -0.87 (compound concentration: 2 uM) and inactive: -1.18 (compound concentration: 10 uM).
Regarding `CC1(C)OC(=O)C(c2cccc(F)c2)=C1c1ccc(S(C)(=O)=O)cc1`, the TEAD-luciferase reporter activity was inactive: 0.155 (compound concentration: 200 nM), inactive: -0.0695 (compound concentration: 2 uM) and inactive: -0.228 (compound concentration: 10 uM).
For the compound `C(=C1/CCCCC1N1CCC1)/c1ccccc1` (centres undefined), the TEAD-luciferase reporter activity was inactive: 1.63 (compound concentration: 200 nM), inactive: 0.0679 (compound concentration: 2 uM) and inactive: 2.41 (compound concentration: 10 uM).
The corresponding values for `COC(=O)N[C@H](C(=O)N1[C@H](c2nc3cc(-c4cc5ccc4CCc4ccc(c(-c6ccc7[nH]c([C@@H]8C[C@@H]9CCCC[C@@H]9N8C(=O)[C@@H](NC(=O)OC)C(C)C)nc7c6)c4)CC5)ccc3[nH]2)C[C@@H]2CCCC[C@@H]21)C(C)C` [Odalasvir] are inactive: 0.0589, inactive: -0.703 and inactive: 0.88.
For `O=C(Oc1c(Br)cc(Br)c2cccnc12)c1cccc(Cl)c1`, in that order: inactive: -1.44, inactive: -0.31 and inactive: 0.0672.
The corresponding values for `CCN1CCC(Nc2ccc3c(c2)/C(=C(/c2cccc(F)c2)c2nc(C)c[nH]2)C(=O)N3)CC1` are inactive: 2.93, active: 13.5 and active: 12.6.
For the compound `CCN1CCCCC12Cc1ccccc1CN(C(=O)CCC(=O)O)C2` (centres undefined), the TEAD-luciferase reporter activity was inactive: 0.303 (compound concentration: 200 nM) and inactive: 0.997 (compound concentration: 10 uM).
Consider `C(COCC1CO1)OCCOCC1CO1` (centres undefined), for which the TEAD-luciferase reporter activity (compound concentration: 200 nM) is inactive: 1.15, the TEAD-luciferase reporter activity (compound concentration: 2 uM) is inactive: 0.0955 and the TEAD-luciferase reporter activity (compound concentration: 10 uM) was inactive: 0.118.
The corresponding values for `O=P(O)(O)OC(Cn1cncn1)(Cn1cncn1)c1ccc(F)cc1F` [fosfluconazole] are inactive: 1.23, inactive: 1.12 and inactive: 0.367.
Consider `C[C@]1(c2cc(NC(=O)c3ccc(C#N)cn3)ccc2F)N=C(N)OCC1(F)F`, for which the TEAD-luciferase reporter activity (compound concentration: 200 nM) is inactive: -1.43, the TEAD-luciferase reporter activity (compound concentration: 2 uM) is inactive: -0.351 and the TEAD-luciferase reporter activity (compound concentration: 10 uM) was inactive: 1.46.
For `Cc1ccc(Nc2ncccc2C(=O)O)c(C)c1`, in that order: inactive: 0.00195, inactive: 0.0828 and inactive: 3.44.
The corresponding values for `COc1ccc(Nc2ccc(CCNC[C@H](O)c3ccc(O)c4[nH]c(=O)ccc34)cc2)cc1-c1ccccc1` are inactive: -1.06, inactive: -0.696 and inactive: -0.646.
For `O=C(Nc1ccc2ccccc2c1)C(c1csc2ccc(Cl)cc12)P(=O)(O)O` (centres undefined), in that order: inactive: 1.59, inactive: -0.0335 and inactive: 0.995.
Turning to `COC(=O)c1ccccc1O` [methyl salicylate], the TEAD-luciferase reporter activity reads like this: (compound concentration: 200 nM) inactive: 0.992; (compound concentration: 2 uM) inactive: -0.301; (compound concentration: 10 uM) inactive: 2.75.
The corresponding values for `Cc1cc2c(OCC(O)CNC(C)CCn3cnc4c3c(=O)n(C)c(=O)n4C)cccc2[nH]1` (centres undefined) are inactive: -0.00772, inactive: -0.675 and inactive: -0.508.
The corresponding values for `CCCC(O)C(CC)CO` (centres undefined) are inactive: 0.198, inactive: -1.01 and inactive: -0.473.
`C[C@H](CCC(=O)O)[C@H]1CC[C@H]2[C@@H]3CC[C@@H]4C[C@H](O)CC[C@]4(C)[C@H]3C[C@H](O)[C@]12C` [deoxycholic acid, Kythera]: the TEAD-luciferase reporter activity is, setting by setting: (compound concentration: 200 nM) inactive: -1.63; (compound concentration: 10 uM) inactive: 2.9.
In the case of `C[C@H](CCC(=O)O)[C@H]1CC[C@H]2[C@@H]3CC[C@@H]4C[C@H](O)CC[C@]4(C)[C@H]3C[C@H](O)[C@]12C` [deoxycholic acid], the TEAD-luciferase reporter activity (compound concentration: 2 uM) is inactive: -0.156.
For `Cc1c(C(N)=O)cc([N+](=O)[O-])cc1[N+](=O)[O-]` [Zoalene], the TEAD-luciferase reporter activity (compound concentration: 2 uM) is inactive: -0.888.
`Cc1c(C(N)=O)cc([N+](=O)[O-])cc1[N+](=O)[O-]`: the TEAD-luciferase reporter activity runs as follows: (compound concentration: 200 nM) inactive: -0.543; (compound concentration: 10 uM) inactive: 0.645.
Consider `Oc1c(Cl)cc(Cl)cc1Sc1cc(Cl)cc(Cl)c1O` [bithionol], for which the TEAD-luciferase reporter activity (compound concentration: 2 uM) is inactive: -1.41.
Consider `Oc1c(Cl)cc(Cl)cc1Sc1cc(Cl)cc(Cl)c1O`, for which the TEAD-luciferase reporter activity is, setting by setting: (compound concentration: 200 nM) inactive: -1.23; (compound concentration: 10 uM) active: 12.8.
For the compound `COc1ccc2c(c1)N(CCCN(C)C)c1ccccc1S2`, the TEAD-luciferase reporter activity was inactive: 0.772 (compound concentration: 200 nM), inactive: 1.17 (compound concentration: 2 uM) and inactive: 0.576 (compound concentration: 10 uM).
On to `COc1cc2nc(N3CCN(C(=O)C4COc5ccccc5O4)CC3)nc(N)c2cc1OC` [(S)-doxazosin], for which the TEAD-luciferase reporter activity (compound concentration: 2 uM) was inactive: 2.84.
As to `COc1cc2nc(N3CCN(C(=O)C4COc5ccccc5O4)CC3)nc(N)c2cc1OC` (centres undefined) [Doxazosin], the TEAD-luciferase reporter activity reads like this: (compound concentration: 200 nM) inactive: -0.27; (compound concentration: 10 uM) inactive: 0.349.
As for `CN(Cc1ccccc1)C(=O)[C@H](Cc1ccc2ccccc2c1)N(C)C(=O)[C@@H]1CCCN1c1nc2ccccc2c(=O)[nH]1`, the TEAD-luciferase reporter activity is inactive: 0.654 (compound concentration: 200 nM), inactive: 0.496 (compound concentration: 2 uM) and inactive: 0.402 (compound concentration: 10 uM).
The corresponding values for `c1ccc2c(CC3=NCCN3)cccc2c1` are inactive: -2.02, inactive: 1.93 and inactive: -1.89.
For `C=CCc1cccc(/C=N\NC(=O)CN2CCN(Cc3ccccc3)CC2)c1O`, in that order: inactive: -1.23, inactive: -0.388 and inactive: -2.59.
For `NC(=O)CN1Cc2ccccc2OC1=O` [caroxazone], in that order: inactive: 1.51, inactive: 0.0218 and active: 6.32.
Consider `COc1cc2c(cc1OC)S(=O)(=O)OC(C(=O)NC(C)CC(C)(C)N(C)C)C2` (centres undefined), for which the TEAD-luciferase reporter activity by setting is: (compound concentration: 200 nM) inactive: -1.02; (compound concentration: 2 uM) inactive: 0.476; (compound concentration: 10 uM) inactive: 0.316.
On to `COc1ccc2c(OCc3nnc4ccc(-c5ccccc5)nn34)ccnc2c1`, for which the TEAD-luciferase reporter activity is inactive: -0.424 (compound concentration: 200 nM), inactive: 0.13 (compound concentration: 2 uM) and inactive: -0.0342 (compound concentration: 10 uM).
Turning to `CC[C@@H]1CN(C(=O)NCC(F)(F)F)C[C@@H]1c1cnc2cnc3[nH]ccc3n12` [Upadacitinib], the TEAD-luciferase reporter activity is inactive: -1.02 (compound concentration: 200 nM), inactive: -0.884 (compound concentration: 2 uM) and inactive: 1.11 (compound concentration: 10 uM).
The corresponding values for `CCC12C=CCN3CC[C@@]4(c5cc([C@@]6(C(=O)OC)C[C@@H]7CN(CCc8c6[nH]c6ccccc86)C[C@](O)(CC)C7)c(OC)cc5N(C=O)[C@H]4[C@@](O)(C(=O)OC)[C@@H]1OC(C)=O)[C@@H]32` (some centres undefined) [vincristine, Liposome Co] are inactive: -0.841, inactive: 4.14 and active: 11.6.
Consider `CCOC(=O)Cc1cc(Cl)c(Oc2ccc(C(=O)NC(C)(C)C)cc2NS(=O)(=O)c2ccc(C)cc2)cc1F`, for which the TEAD-luciferase reporter activity was inactive: -1.14 (compound concentration: 200 nM), inactive: -0.42 (compound concentration: 2 uM) and inactive: 1.72 (compound concentration: 10 uM).
Take `Cc1cn(Cc2ccc(Cl)cc2Cl)c2c(/C=C/C(=O)NS(=O)(=O)c3cc(Cl)c(Cl)s3)cc(F)cc12`: the TEAD-luciferase reporter activity by setting is: (compound concentration: 200 nM) inactive: 2.03; (compound concentration: 2 uM) inactive: 1.87; (compound concentration: 10 uM) inactive: 0.836.
For `CCCCCC(=O)O[C@]1(C(C)=O)CC[C@H]2[C@@H]3CCC4=CC(=O)CC[C@@H]4[C@H]3CCC21C` (some centres undefined), the TEAD-luciferase reporter activity reads like this: (compound concentration: 200 nM) inactive: -0.725; (compound concentration: 2 uM) inactive: -0.909; (compound concentration: 10 uM) inactive: 0.434.
On to `CCN(CC)C(=O)c1ccc(O)c(OC)c1`, for which the TEAD-luciferase reporter activity runs as follows: (compound concentration: 200 nM) inactive: 1.53; (compound concentration: 2 uM) inactive: -0.514; (compound concentration: 10 uM) inactive: 3.02.
The corresponding values for `CN1CCN(S(=O)(=O)CCCN2CCC(CNC(=O)c3cccc4c3OCCO4)CC2)CC1` are inactive: 0.776, inactive: -0.151 and inactive: -2.67.
For `CCCCC/C=C\C/C=C\CCCCCCCC(=O)OCC(COC(=O)CCCCCCC/C=C\C/C=C\CCCCC)OC(=O)CCCCCCC/C=C\C/C=C\CCCCC`, in that order: inactive: -0.766, inactive: -1.18 and inactive: 0.471.
As for `CCOC(=O)/C=C(C)/C=C/C=C(C)/C=C/c1c(C)cc(OC)c(C)c1C`, the TEAD-luciferase reporter activity was inactive: 0.204 (compound concentration: 200 nM), inactive: -1.61 (compound concentration: 2 uM) and inactive: 0.154 (compound concentration: 10 uM).

The values above are taken from the supplement of paper PMC10735217.
